Assay results as given in patent US5702926.
Where a protein sequence is shown, tags need not be part of it.

Biological target: T1, BsoBI restriction endonuclease (UniProt P70985)
T1 sequence (looked up, limits assumed): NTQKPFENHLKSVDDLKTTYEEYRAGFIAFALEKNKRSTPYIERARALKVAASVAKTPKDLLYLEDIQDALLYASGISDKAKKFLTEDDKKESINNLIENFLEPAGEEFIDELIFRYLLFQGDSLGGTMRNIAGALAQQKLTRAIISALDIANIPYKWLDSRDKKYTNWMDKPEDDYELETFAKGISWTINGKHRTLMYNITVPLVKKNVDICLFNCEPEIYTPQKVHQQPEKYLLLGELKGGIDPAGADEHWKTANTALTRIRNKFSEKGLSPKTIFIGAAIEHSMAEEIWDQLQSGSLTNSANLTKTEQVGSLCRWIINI
Test: enzyme reaction in vitro
Settings: modified strand completely protected, unmodified strand efficiently cleaved (nicking), 35 mM KiPO4, 60 C, 15 min, purified recombinant protein, label: 32P 5' end on template or primer

CTCGGG (double strand)
activity on this sequence (PS dC in the extended strand): active
activity on this sequence (alpha-boranophosphate dC in the extended strand): active
